Results published in patent US12241902B2, “Probes for detection of copper” (The Regents of the University of California, priority 2019, dated 2025).
“Also recorded” adds a separate entry of the source.

How the values were obtained:
[1] = test system: total cellular ^63Cu levels in HeLa cells; experiment: ICP-MS of total cellular copper in HeLa cells; format: cell-based, Human; conditions: ascorbate 1 mM or BSO 1 mM
[2] = Ratiometric fluorescence response (F526/F576) to Cu(I) in aqueous buffer; conditions: probe 0.5 to 20 μM, no Cu(I)
Description: UV-vis absorption and emission measurements. FCP-1 stock solution in DMSO (5 mM) was prepared, aliquoted and stored at […]. For each spectroscopic measurement, a fresh aliquot was diluted to 500 μM by DMSO and further diluted with PBS containing 2 mM GSH/PEG-400 mixture (3:2, v/v) to prepare the sensing solution with 5 μM of FCP-1. The sensing solution was pre-incubated in a water bath at 37° C., and then [Cu(CH3CN)](PF6) in MeCN or other metal ions in H2O was added. The solution mixture was kept at 37° C. and taken out for UV-vis absorption or emission spectroscopic measurements in quartz cuvette at predetermined time intervals. Emission spectra were corrected using coumarin 153 as secondary emission standard (4). Photoluminescence quantum yield (PLQY) was determined using fluorescein in 0.1 M NaOH solution (0.95; λex=496 nm). FRET efficiency from the fluorescein moiety to rhodamine moiety of FCP-1 was estimated by [1−(PLQY of FCP-1/PLQY of FL-TPA)].
The ratiometric fluorescence change of FCP-1 at 526 and 576 nm (F526/F576) was rapid and reached saturation after ca. 30 min in the presence of a two-fold excess of Cu(I) (10 μM).

CCCCS(=N)(=O)CCC(N)C(=O)O (centres unmarked) [BSO, buthionine sulfoximine]
total copper levels by ICP-MS compared to vehicle control [1]: no change; also recorded: did not differ significantly

CC[N+](CC)=c1ccc2c(-c3ccccc3C(=O)O)c3ccc(N4CCN(Cc5cccc(CN(Cc6ccccn6)Cc6cccc(COc7ccc8c(-c9ccccc9C(=O)OC)c9ccc(=O)cc-9oc8c7)n6)n5)CC4)cc3oc-2c1 [FCP-1]
basal F526/F576 emission ratio with varying concentrations of probe [2]: No significant changes; also recorded: did not show significant changes
